Data taken from patent US20100298305A1, “TIZANIDINE FOR THE TREATMENT OF POST-TRAUMATIC STRESS DISORDER AND NIGHTMARES” (The United States Government, as represented by the …, priority 2008, published 2010).
For at least one compound, name, drawing or mass did not settle the structure.

Test system: PTSD
Assay: Example 2 case summaries 7-9: switching from once to twice-daily dosing of tizanidine
Details: Case 8
Procedure: They were continued on aripiprazole, quetiapine, sertraline, and trazodone. Treatment with tizanidine was started for the nightmares and poor sleep.
They were switched from tizanidine 8 mg at bedtime to tizanidine 6 mg in the morning and 8 mg at bedtime. […] They continued on the sertraline, divalproex, and trazodone for initial insomnia. The tizanidine was switched to 4 mg in the morning and 4 mg at bedtime.
Subject was started on tizanidine up to 8 mg at bedtime for nightmares. They also were issued a device to assist with memory problems. A rating scale for common cognitive problems was administered by speech pathology prior to issuing them a personal digital assistant as a memory assist device.
They continued to take sertraline and tizanidine. At a psychology evaluation session, subject completed two self-report instruments of PTSD and depressive symptoms to establish a baseline indication of symptom severity. […] Subject was then switched from tizanidine 8 mg at bedtime to 4 mg twice daily.
After approximately one year of being followed in the psychiatry clinic, they became more willing to try medication and agreed to a trial of tizanidine.

SMILES: CN(C)CCCC1(c2ccc(F)cc2)OCc2cc(C#N)ccc21 (centres unmarked) [citalopram]
- irritability (only benefit) (Citalopram 20 mg daily, two months): slight reduction in irritability
- panic attacks (citalopram increased to 40 mg daily, two months later): no significant change to their panic attacks
